# Laboratory results from the supplement of paper PMC10849652.
# The chains behind the UniProt entries cited, without tags or fusion partners. Where a name states a change or a piece, a line headed by the entry shows the natural chain unless it says otherwise.
# UniProt Q06830: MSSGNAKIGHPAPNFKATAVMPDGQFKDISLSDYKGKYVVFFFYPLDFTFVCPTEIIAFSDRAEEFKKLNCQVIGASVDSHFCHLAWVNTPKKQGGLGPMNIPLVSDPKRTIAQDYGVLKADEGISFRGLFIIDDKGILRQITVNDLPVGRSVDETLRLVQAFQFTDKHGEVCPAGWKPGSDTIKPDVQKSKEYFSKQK
# UniProt O60927: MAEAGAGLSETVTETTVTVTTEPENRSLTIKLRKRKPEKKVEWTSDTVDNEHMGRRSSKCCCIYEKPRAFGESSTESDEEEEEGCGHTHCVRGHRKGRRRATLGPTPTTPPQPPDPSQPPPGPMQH
# UniProt P48147: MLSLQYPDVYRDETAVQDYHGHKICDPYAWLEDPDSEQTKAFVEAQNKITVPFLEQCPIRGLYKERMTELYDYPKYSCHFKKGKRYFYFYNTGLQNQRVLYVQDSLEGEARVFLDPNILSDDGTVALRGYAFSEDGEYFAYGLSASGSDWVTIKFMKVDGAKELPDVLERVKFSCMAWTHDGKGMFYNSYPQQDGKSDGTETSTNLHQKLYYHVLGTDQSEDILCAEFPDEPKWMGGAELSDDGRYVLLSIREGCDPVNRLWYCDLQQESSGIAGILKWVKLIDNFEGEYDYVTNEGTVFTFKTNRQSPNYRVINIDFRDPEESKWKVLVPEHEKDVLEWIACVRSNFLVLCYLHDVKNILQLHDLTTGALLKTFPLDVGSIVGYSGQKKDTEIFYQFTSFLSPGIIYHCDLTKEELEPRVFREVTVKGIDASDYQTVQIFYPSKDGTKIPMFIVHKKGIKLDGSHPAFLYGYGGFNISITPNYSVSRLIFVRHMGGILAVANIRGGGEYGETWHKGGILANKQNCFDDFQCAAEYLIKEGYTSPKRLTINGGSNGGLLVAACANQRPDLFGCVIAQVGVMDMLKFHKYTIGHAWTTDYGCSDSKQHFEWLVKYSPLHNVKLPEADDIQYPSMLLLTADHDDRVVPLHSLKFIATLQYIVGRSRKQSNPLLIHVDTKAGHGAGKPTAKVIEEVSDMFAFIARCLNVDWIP
# UniProt P14314: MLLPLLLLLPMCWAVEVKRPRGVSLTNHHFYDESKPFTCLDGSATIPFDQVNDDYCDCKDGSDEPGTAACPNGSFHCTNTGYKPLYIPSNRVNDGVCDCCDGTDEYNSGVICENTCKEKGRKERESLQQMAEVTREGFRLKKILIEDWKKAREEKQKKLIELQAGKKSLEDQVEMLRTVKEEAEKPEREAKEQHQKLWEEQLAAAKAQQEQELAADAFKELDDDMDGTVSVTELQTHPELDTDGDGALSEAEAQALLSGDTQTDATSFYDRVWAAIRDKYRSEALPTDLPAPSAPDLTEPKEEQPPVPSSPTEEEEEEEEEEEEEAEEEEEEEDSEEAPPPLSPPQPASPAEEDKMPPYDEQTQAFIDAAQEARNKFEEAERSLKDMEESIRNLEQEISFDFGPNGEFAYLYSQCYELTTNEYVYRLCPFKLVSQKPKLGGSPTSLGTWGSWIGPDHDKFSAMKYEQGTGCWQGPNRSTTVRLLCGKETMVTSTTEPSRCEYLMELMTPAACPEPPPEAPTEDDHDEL
# UniProt K7ELL7: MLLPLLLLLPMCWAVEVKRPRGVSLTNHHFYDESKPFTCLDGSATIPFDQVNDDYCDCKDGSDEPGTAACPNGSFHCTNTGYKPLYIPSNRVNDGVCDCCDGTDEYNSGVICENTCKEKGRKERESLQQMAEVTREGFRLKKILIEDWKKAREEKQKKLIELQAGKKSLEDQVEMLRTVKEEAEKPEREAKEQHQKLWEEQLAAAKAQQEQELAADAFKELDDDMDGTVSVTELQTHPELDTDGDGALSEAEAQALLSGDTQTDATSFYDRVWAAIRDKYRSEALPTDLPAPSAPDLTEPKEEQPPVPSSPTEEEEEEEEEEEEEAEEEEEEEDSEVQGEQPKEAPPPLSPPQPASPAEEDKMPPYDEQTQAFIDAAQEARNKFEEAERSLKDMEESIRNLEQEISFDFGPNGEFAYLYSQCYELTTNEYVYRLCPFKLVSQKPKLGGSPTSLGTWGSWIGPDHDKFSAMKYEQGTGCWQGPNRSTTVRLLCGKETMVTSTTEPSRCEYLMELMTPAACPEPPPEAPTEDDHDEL
# UniProt Q9Y6M0: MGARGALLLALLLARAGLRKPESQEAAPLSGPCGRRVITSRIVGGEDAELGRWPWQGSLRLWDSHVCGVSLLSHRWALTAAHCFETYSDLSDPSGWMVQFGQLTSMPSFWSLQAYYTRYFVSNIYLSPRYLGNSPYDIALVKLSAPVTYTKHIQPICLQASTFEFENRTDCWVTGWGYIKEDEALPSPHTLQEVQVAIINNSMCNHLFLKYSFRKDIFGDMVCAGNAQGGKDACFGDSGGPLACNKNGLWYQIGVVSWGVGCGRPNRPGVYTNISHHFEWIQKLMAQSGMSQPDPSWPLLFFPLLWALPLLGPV
# UniProt Q6NYC8: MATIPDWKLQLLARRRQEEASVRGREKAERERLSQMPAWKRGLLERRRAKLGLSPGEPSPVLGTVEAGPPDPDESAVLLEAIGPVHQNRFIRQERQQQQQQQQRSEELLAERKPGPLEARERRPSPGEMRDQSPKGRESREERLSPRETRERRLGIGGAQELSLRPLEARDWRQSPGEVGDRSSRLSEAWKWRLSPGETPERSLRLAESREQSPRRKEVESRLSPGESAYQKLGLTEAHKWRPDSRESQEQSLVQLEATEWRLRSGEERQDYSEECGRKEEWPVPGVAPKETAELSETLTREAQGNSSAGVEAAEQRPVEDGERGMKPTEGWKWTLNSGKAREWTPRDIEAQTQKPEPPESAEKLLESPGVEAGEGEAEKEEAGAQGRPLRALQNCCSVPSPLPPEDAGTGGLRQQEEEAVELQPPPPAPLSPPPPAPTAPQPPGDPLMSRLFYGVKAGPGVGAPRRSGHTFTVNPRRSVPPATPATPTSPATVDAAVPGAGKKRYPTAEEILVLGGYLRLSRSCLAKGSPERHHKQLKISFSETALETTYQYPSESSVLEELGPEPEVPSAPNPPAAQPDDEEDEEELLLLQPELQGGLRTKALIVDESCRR
# UniProt P07225: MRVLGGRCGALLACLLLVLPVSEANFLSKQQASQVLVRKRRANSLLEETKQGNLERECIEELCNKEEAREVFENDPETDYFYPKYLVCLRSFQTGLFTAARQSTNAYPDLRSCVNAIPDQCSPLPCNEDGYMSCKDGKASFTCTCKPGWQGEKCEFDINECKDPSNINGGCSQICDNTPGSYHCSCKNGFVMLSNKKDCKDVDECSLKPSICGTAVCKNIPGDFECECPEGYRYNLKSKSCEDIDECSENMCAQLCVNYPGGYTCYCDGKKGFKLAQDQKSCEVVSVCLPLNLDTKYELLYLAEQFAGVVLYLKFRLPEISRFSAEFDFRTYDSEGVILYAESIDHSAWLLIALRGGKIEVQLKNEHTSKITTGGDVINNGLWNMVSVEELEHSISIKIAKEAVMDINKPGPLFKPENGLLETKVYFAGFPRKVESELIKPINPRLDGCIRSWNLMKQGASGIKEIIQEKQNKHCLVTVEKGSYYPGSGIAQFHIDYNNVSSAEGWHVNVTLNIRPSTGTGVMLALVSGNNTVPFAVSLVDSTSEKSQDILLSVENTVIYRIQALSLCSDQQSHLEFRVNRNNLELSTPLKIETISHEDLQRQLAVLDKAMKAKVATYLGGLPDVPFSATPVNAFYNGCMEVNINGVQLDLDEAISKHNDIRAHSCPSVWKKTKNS
# UniProt Q96LA8, whole entry, looked up: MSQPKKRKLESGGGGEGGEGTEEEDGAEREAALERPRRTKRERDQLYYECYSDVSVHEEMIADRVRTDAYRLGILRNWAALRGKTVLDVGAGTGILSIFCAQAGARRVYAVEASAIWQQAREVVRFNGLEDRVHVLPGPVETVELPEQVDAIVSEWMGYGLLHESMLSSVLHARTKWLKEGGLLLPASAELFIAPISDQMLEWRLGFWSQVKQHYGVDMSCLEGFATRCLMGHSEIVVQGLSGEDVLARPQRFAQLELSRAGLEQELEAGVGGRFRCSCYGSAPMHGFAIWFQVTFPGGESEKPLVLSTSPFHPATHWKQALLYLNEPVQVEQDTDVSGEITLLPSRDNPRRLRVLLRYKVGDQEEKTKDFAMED
# UniProt Q13162: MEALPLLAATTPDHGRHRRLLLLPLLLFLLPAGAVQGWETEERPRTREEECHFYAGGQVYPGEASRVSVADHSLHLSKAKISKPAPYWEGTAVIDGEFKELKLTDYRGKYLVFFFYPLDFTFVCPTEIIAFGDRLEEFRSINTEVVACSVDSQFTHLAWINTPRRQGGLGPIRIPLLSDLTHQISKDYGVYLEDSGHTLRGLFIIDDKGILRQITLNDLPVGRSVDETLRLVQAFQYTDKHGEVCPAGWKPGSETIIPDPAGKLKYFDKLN
# UniProt P48634: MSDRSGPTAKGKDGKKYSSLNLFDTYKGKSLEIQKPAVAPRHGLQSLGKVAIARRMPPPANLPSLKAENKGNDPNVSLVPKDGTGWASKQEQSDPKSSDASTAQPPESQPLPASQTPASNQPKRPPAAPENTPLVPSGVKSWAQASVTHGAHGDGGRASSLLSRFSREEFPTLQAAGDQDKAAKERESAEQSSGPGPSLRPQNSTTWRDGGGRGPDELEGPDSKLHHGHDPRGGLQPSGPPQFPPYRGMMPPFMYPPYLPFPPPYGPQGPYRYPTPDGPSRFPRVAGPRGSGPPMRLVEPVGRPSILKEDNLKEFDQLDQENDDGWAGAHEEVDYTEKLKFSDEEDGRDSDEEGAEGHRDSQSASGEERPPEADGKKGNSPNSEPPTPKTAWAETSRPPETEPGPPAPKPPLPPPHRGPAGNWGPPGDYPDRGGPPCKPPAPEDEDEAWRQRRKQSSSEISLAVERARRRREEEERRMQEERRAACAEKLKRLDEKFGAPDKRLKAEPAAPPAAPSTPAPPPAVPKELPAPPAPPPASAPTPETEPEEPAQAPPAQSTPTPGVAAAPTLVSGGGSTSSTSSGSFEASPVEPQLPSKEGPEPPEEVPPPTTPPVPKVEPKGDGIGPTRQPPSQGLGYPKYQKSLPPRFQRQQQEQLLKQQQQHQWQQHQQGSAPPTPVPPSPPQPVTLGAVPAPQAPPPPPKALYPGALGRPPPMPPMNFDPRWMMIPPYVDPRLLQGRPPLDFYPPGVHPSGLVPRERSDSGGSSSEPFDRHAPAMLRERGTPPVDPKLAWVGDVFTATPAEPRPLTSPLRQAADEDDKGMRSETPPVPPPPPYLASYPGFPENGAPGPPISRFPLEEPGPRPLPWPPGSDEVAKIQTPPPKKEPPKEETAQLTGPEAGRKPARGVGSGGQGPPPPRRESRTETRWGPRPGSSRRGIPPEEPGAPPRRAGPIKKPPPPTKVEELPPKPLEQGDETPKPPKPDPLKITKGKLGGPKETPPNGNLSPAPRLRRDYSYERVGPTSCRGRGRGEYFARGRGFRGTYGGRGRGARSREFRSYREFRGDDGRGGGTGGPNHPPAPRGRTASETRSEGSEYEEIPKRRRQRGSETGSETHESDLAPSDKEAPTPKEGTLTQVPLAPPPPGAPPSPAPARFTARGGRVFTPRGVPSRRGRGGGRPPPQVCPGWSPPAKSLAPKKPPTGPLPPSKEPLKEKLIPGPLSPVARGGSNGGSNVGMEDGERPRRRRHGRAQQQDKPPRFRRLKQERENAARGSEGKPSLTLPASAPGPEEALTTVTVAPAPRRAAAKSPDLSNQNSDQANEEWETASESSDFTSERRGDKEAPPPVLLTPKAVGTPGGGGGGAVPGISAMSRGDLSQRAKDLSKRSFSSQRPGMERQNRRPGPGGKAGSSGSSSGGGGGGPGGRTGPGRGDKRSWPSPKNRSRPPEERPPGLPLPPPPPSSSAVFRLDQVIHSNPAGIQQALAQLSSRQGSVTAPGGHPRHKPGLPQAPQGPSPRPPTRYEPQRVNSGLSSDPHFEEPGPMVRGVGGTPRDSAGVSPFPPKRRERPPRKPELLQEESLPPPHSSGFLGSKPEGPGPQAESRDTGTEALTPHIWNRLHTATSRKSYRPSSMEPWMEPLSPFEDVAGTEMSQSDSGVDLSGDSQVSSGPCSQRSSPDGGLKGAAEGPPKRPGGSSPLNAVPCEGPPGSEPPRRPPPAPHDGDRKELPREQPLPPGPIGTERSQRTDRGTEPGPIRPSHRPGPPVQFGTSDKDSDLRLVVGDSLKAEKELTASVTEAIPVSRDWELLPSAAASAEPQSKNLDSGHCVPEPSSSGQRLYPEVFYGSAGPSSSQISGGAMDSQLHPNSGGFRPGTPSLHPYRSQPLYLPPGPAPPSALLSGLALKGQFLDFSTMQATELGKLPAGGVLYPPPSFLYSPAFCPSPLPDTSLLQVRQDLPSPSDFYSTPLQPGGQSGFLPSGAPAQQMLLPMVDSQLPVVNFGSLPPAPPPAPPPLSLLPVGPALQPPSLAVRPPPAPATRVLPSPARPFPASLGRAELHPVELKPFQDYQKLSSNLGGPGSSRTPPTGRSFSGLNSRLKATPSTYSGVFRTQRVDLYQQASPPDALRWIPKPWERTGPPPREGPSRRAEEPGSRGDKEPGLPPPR
# The list shows a part of the results. Residues, ends and D or L forms follow the SMILES beside them. *: point of attachment. Cbz = O=C(OCc1ccccc1)*
# What was measured:
# Assay in all cases: log2 fold change, soluble protein after heating vs DMSO (PISA); higher = thermal stabilisation; K562 cells, 10 uM, 30 min; active = over 0.2 and 3.5 SD of the protein, either way, in both replicates (recomputed)
# erlotinib = compound: C#Cc1cccc(Nc2ncnc3cc(OCCOC)c(OCCOC)cc23)c1 [erlotinib]
# Outline: (§1)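 Soluble protein was quantified by TMTpro 16plex LC-MS/MS after channel sums were equalised. It was obtained as the supernatant after 21,000xg for 90 min from pooled aliquots of K562 cells (2×10^6 cells/mL, 10 μM compound, 30 min) heated for 3 min across 48°C-58°C and extracted in PBS with 0.5% NP-40 at 4°C. Thermal stability values are relative to control samples and come from duplicates. They are given as log2 fold changes.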
# [1] = compound: C/C(=N\NC(=O)C1=CC(=CC=C1)S(=O)(=O)N2CCOCC2)/C3=C(C=CC(=C3)Cl)O
# Outline: as §1
# [2] = compound: C1=CC(=C(C=C1Cl)C2=NC3=NC=CN=C3C(=N2)NC4=CC=NC=C4)F
# Outline: as §1
# [3] = compound: C1=CC(=CC=C1C2=NC3=C(N2)C=C(C=C3)C(=O)N)OC4=CC=C(C=C4)Cl
# Outline: as §1
# [4] = compound: C1=CC2=C(C=CC(=C2)/C=C\3/C(=O)NC(=NCC4=CC=CS4)S3)N=C1
# Outline: as §1
# [5] = compound: C1=CC2=NC=CN=C2C=C1/C=C/3\C(=O)NC(=O)S3
# Outline: as §1
# [6] = compound: C1=CC=C(C=C1)C2=NC(=C(N2)C3=CC=NC=C3)C4=CC(=C(C=C4)Cl)O
# Outline: as §1
# [7] = compound: C1=CC=C2C(=C1)C3=NNC4=CC=CC(=C43)C2=O
# Outline: as §1
# [8] = compound: C1CCN(C1)C(=O)NC2=CC=CC(=C2)NC3=NC=C(C(=N3)NCCC4=CN=CN4)Br
# Outline: as §1
# [9] = compound: C1CN(CCC1(CC2=CC=C(C=C2)Cl)N)C3=NC=NC4=C3C=CN4
# Outline: as §1
# IRAK-1-4 Inhibitor I = compound: C1COCCN1CCN2C3=CC=CC=C3N=C2NC(=O)C4=CC(=CC=C4)[N+](=O)[O-] [IRAK-1-4 Inhibitor I]
# Outline: as §1
# ibrutinib = compound: C=CC(=O)N1CCC[C@@H](n2nc(-c3ccc(Oc4ccccc4)cc3)c3c(N)ncnc32)C1 [ibrutinib]
# Outline: as §1
# [10] = compound: CC(=O)c1cnc2ccc(-c3cc(Cl)c(O)c(Cl)c3)nc2c1N[C@H]1CC[C@H](CN(C)C)CC1
# Outline: as §1
# ralimetinib = compound: CC(C)(C)Cn1c(N)nc2ccc(-c3[nH]c(C(C)(C)C)nc3-c3ccc(F)cc3)nc21 [ralimetinib]
# Outline: as §1
# [11] = compound: CC(C)(O)CC(=O)NCCn1ccc2ncnc(Nc3ccc(Oc4cccc(C(F)(F)F)c4)c(Cl)c3)c21
# Outline: as §1
# [12] = compound: CC(C)C1=C2N=C(C=C(N2N=C1)NCC3=CC=CC=C3)NCCCCCCN
# Outline: as §1
# [13] = compound: CC(C)C[C@@H](C=O)NC(=O)[C@H](CC(C)C)NC(=O)[C@H](CC(C)C)NC(=O)OCc1ccccc1
# Outline: as §1
# pinometostat = compound: CC(C)N(C[C@H]1O[C@@H](n2cnc3c(N)ncnc32)[C@H](O)[C@@H]1O)[C@H]1C[C@@H](CCc2nc3cc(C(C)(C)C)ccc3[nH]2)C1 [pinometostat]
# Outline: as §1
# [14] = compound: CC1=C(C(CC(=O)N1)C2=CC=C(C=C2)C(F)(F)F)C(=O)NC3=C(C=C4C(=C3)C=NN4)F
# Outline: as §1
# [15] = compound: CC1=C(C2=C(C=C1)C(=O)C3=CC=CC=C3N2CCCN)C
# Outline: as §1
Target,log2 fold change (erlotinib),log2 fold change [1],log2 fold change [2],log2 fold change [3],log2 fold change [4],log2 fold change [5],log2 fold change [6],log2 fold change [7],log2 fold change [8],log2 fold change [9],log2 fold change (IRAK-1-4 Inhibitor I),log2 fold change (ibrutinib),log2 fold change [10],log2 fold change (ralimetinib),log2 fold change [11],log2 fold change [12],log2 fold change [13],log2 fold change (pinometostat),log2 fold change [14],log2 fold change [15]
PPP2R2D (UniProt Q66LE6),inactive: -0.013,inactive: -0.02,inactive: 0.137,inactive: -0.065,inactive: 0.171,inactive: 0.111,inactive: 0.027,inactive: -0.008,inactive: 0.059,inactive: -0.039,inactive: -0.022,inactive: 0.017,inactive: -0.202,inactive: -0.051,inactive: -0.008,inactive: 0.04,inactive: 0.026,inactive: -0.005,inactive: 0.029,inactive: -0.04
PRDX1 (UniProt Q06830),inactive: 0.024,inactive: 0.009,inactive: 0.044,inactive: -0.015,inactive: 0.019,inactive: -0.007,inactive: 0.022,inactive: 0.023,inactive: 0.018,inactive: 0.041,inactive: 0.038,inactive: 0,inactive: -0.028,inactive: -0.048,inactive: 0.007,inactive: 0.035,inactive: -0.017,inactive: -0.026,inactive: 0.005,inactive: 0.006
PROSER2 (UniProt Q86WR7),inactive: 0.042,inactive: 0.047,inactive: 0.048,inactive: -0.003,inactive: -0.06,inactive: -0.004,inactive: -0.044,inactive: 0.079,inactive: -0.076,inactive: 0.019,inactive: 0.034,inactive: -0.11,inactive: -0.064,inactive: 0.073,inactive: -0.167,inactive: 0.069,inactive: 0.04,inactive: -0.005,inactive: 0.051,inactive: -0.057
PPP1R12A (UniProt O14974),inactive: 0.004,inactive: 0.044,inactive: 0.023,inactive: 0.023,inactive: -0.188,inactive: 0,inactive: 0.035,inactive: -0.067,inactive: -0.074,active: -0.485,inactive: -0.013,inactive: -0.022,active: -0.666,inactive: 0,inactive: 0,inactive: -0.119,inactive: -0.014,inactive: -0.003,active: -0.514,inactive: -0.01
PPP1R11 (UniProt O60927),inactive: -0.019,inactive: -0.12,inactive: -0.047,inactive: 0.02,inactive: -0.089,inactive: 0.064,inactive: -0.119,inactive: -0.081,inactive: 0.014,inactive: 0.102,inactive: 0.01,inactive: 0.017,inactive: 0.012,inactive: -0.075,inactive: -0.027,inactive: 0.134,inactive: 0.035,inactive: -0.066,inactive: 0.113,inactive: -0.106
PREP (UniProt P48147),inactive: 0.028,inactive: 0.091,inactive: -0.117,inactive: -0.016,inactive: 0.114,inactive: 0.058,inactive: 0.075,inactive: -0.029,inactive: -0.041,inactive: -0.097,inactive: -0.128,inactive: -0.007,inactive: 0,inactive: 0.158,inactive: -0.059,inactive: -0.223,inactive: 0.052,inactive: 0.179,inactive: 0.021,inactive: 0.01
PRKCSH isoform 2 (UniProt P14314),inactive: 0.007,inactive: -0.035,inactive: 0.105,inactive: -0.08,inactive: -0.131,inactive: 0.088,inactive: 0.019,inactive: -0.019,inactive: -0.025,inactive: -0.186,inactive: -0.03,inactive: 0.017,inactive: -0.056,inactive: 0.097,inactive: -0.05,inactive: 0.152,inactive: -0.021,inactive: 0.072,inactive: 0.064,inactive: -0.145
PRKCSH (UniProt K7ELL7),inactive: -0.033,inactive: -0.013,inactive: -0.063,inactive: 0.212,inactive: 0.007,inactive: 0.058,inactive: -0.114,inactive: 0.003,inactive: -0.175,inactive: -0.064,inactive: 0.038,inactive: -0.02,inactive: -0.093,inactive: 0,inactive: 0.001,inactive: -0.04,inactive: -0.011,inactive: -0.021,inactive: 0.14,inactive: 0.011
PRSS21 (UniProt Q9Y6M0),inactive: -0.031,inactive: -0.047,inactive: 0.002,inactive: -0.072,inactive: 0.038,inactive: -0.006,inactive: 0.006,inactive: 0.054,inactive: -0.009,inactive: -0.002,inactive: -0.059,inactive: 0.026,inactive: -0.018,inactive: 0.013,inactive: -0.015,inactive: -0.084,inactive: -0.028,inactive: 0.044,inactive: -0.036,inactive: 0.004
PPP1R18 (UniProt Q6NYC8),inactive: -0.031,inactive: 0.01,inactive: -0.019,inactive: 0,inactive: -0.011,inactive: 0.061,inactive: -0.032,inactive: -0.011,inactive: -0.018,inactive: -0.046,inactive: -0.07,inactive: 0.007,inactive: -0.184,inactive: -0.035,inactive: 0.031,inactive: -0.005,inactive: 0.03,inactive: -0.074,inactive: -0.015,inactive: 0.034
PRKCSH (UniProt P14314),inactive: -0.033,inactive: -0.009,inactive: 0.071,inactive: -0.027,inactive: -0.06,inactive: 0.008,inactive: 0.012,inactive: 0.053,inactive: -0.054,inactive: 0.011,inactive: 0.02,inactive: -0.019,inactive: -0.008,inactive: 0.022,inactive: 0.053,inactive: -0.017,inactive: -0.057,inactive: -0.041,inactive: 0.016,inactive: -0.022
PROS1 (UniProt P07225),inactive: -0.014,inactive: -0.062,inactive: -0.001,inactive: 0.047,inactive: -0.01,inactive: 0.021,inactive: 0.014,inactive: -0.061,inactive: 0,inactive: 0.038,inactive: -0.011,inactive: 0.042,inactive: -0.022,inactive: 0.037,inactive: 0.04,inactive: 0.039,inactive: -0.038,inactive: 0.038,inactive: 0.051,inactive: -0.108
PPP6R2 isoform 5 (UniProt O75170),inactive: 0.017,inactive: -0.006,inactive: 0.038,inactive: -0.037,inactive: -0.017,inactive: 0.048,inactive: 0.02,inactive: 0.016,inactive: 0.009,inactive: -0.004,inactive: 0.014,inactive: -0.015,inactive: 0.036,inactive: -0.025,inactive: -0.028,inactive: 0.045,inactive: 0.034,inactive: 0.024,inactive: -0.025,inactive: -0.011
PRMT6 (UniProt Q96LA8),inactive: 0.023,inactive: 0.041,inactive: 0.121,inactive: 0.023,inactive: 0.066,inactive: 0.006,inactive: 0.125,inactive: 0.005,inactive: 0.04,inactive: 0.005,inactive: -0.07,inactive: -0.058,inactive: 0.034,inactive: 0.015,inactive: -0.057,inactive: -0.014,inactive: 0.022,inactive: -0.185,inactive: -0.042,inactive: 0.157
PRDX4 (UniProt Q13162),inactive: 0.013,inactive: -0.003,inactive: 0.006,inactive: -0.022,inactive: 0.035,inactive: 0.068,inactive: -0.047,inactive: 0.001,inactive: 0.044,inactive: 0.06,inactive: 0.009,inactive: -0.005,inactive: -0.047,inactive: -0.091,inactive: 0.025,inactive: 0.029,inactive: -0.02,inactive: -0.045,inactive: 0.022,inactive: -0.003
PRRC2A (UniProt P48634),inactive: -0.037,inactive: -0.115,inactive: -0.241,inactive: 0.021,inactive: -0.028,inactive: 0,inactive: -0.035,inactive: -0.033,inactive: 0.018,inactive: -0.077,inactive: -0.098,inactive: -0.003,inactive: 0.083,inactive: 0.118,inactive: 0.082,inactive: 0.009,inactive: 0.084,inactive: 0.168,inactive: 0.006,inactive: -0.002

# An excerpt taken from the entries so far:
Target,log2 fold change (erlotinib),log2 fold change [1],log2 fold change [2],log2 fold change [3],log2 fold change [4],log2 fold change [5],log2 fold change [6],log2 fold change [7],log2 fold change [8],log2 fold change [9],log2 fold change (IRAK-1-4 Inhibitor I),log2 fold change (ibrutinib),log2 fold change [10],log2 fold change (ralimetinib),log2 fold change [11],log2 fold change [12],log2 fold change [13],log2 fold change (pinometostat),log2 fold change [14],log2 fold change [15]
PROS1 (UniProt P07225),inactive: -0.014,inactive: -0.062,inactive: -0.001,inactive: 0.047,inactive: -0.01,inactive: 0.021,inactive: 0.014,inactive: -0.061,inactive: 0,inactive: 0.038,inactive: -0.011,inactive: 0.042,inactive: -0.022,inactive: 0.037,inactive: 0.04,inactive: 0.039,inactive: -0.038,inactive: 0.038,inactive: 0.051,inactive: -0.108
PPP6R2 isoform 5 (UniProt O75170),inactive: 0.017,inactive: -0.006,inactive: 0.038,inactive: -0.037,inactive: -0.017,inactive: 0.048,inactive: 0.02,inactive: 0.016,inactive: 0.009,inactive: -0.004,inactive: 0.014,inactive: -0.015,inactive: 0.036,inactive: -0.025,inactive: -0.028,inactive: 0.045,inactive: 0.034,inactive: 0.024,inactive: -0.025,inactive: -0.011
